Reference: patent US7572826B2, “Thiophene-carboxamide derivatives and their use as inhibitors of the enzyme IKK-2” (AstraZeneca AB, priority 2003, dated 2009)
Some results were stated once for a whole list of compounds, not compound by compound.

What follows are compounds tested against T1, IKK-2 (Homo sapiens, UniProt O14920) (assay: IKK-2 filter kinase assay). Settings: 1 μM ATP, 1-53 GST-IκB substrate, read-out: Inhibition of IKK-2 IC50.
T1 sequence (O14920 1-756): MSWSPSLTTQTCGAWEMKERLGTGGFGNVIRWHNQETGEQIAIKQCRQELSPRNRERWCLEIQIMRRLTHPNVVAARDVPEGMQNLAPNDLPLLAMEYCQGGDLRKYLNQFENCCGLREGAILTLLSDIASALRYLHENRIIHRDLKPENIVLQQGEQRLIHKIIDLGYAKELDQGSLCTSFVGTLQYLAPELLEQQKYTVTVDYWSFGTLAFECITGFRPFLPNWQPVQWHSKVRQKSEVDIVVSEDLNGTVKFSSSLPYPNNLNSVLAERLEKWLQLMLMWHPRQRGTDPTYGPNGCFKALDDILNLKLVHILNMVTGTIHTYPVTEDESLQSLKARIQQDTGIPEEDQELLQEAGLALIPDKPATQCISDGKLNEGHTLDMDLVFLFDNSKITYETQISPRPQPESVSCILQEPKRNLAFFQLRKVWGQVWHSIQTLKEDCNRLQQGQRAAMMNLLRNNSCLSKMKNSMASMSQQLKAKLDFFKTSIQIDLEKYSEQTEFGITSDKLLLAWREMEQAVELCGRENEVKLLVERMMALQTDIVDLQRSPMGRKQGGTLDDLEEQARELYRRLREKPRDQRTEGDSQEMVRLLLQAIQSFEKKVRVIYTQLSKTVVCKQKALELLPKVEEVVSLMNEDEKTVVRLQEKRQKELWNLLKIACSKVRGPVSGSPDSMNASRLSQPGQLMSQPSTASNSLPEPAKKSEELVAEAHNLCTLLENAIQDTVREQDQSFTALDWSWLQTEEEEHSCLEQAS
Format: biochemical
Protocol: The test compounds were dissolved to 10 mM in dimethylsulphoxide (DMSO). The compounds were then diluted 1 in 40 in kinase buffer (50 mM Tris, pH 7.4 containing 0.1 mM EGTA, 0.1 mM sodium orthovanadate and 0.1% β-mercaptoethanol). 1 in 3 serial dilutions were made from this solution with 2.5% DMSO in kinase buffer. 20 μl of compound dilution was added to wells of a 96 well plate in duplicate.
10 μl of a mixture of magnesium acetate, unlabelled ATP, and ^33P-labelled ATP was added to each well made such that the final concentration was 10 mM magnesium acetate, 1 μM ATP and 0.1 μCi ^33P ATP. […] The final reaction volume was 50 μl.
The kinase reactions were incubated at 21° C. for 80 minutes and the reaction stopped by precipitating the protein by the addition of an equal volume (50 μl) of 20% trichloroacetic acid (TCA). The precipitate was allowed to form for 10 minutes and then filtered onto a GF/C unifilter 96 well plate. Each filter was washed twice with approximately 1 ml 2% TCA. The filter plate was dried at 30-40° C. for 60 minutes, 20 μl scintillant was added to each well and the plate sealed and radioactivity counted on a Packard Topcount microplate scintillation counter.

IC50, < 10 µM:
NC(=O)Nc1sc(-c2ccc(CNCC(F)(F)F)cc2)cc1C(N)=O [Example 1]
CC(C)NCc1ccc(-c2cc(C(N)=O)c(NC(N)=O)s2)cc1 [Example 2, 2-[(Aminocarbonyl)amino]-5-{4-[(isopropylamino)methyl]phenyl}thiophene-3-carboxamide]
COCCN(CCOC)Cc1ccc(-c2cc(C(N)=O)c(NC(N)=O)s2)cc1 [Example 3, 2-[(Aminocarbonyl)amino]-5-{4-[(bis-(2-methoxyethyl)amino)methyl]phenyl}thiophene-3-carboxamide]
CCN(CCOC)Cc1ccc(-c2cc(C(N)=O)c(NC(N)=O)s2)cc1 [Example 4, 2-[(Aminocarbonyl)amino]-5-{4-[(N-ethyl-N-(2-methoxyethyl)amino)methyl]phenyl}thiophene-3-carboxamide]
CN(C)Cc1ccc(-c2cc(C(N)=O)c(NC(N)=O)s2)cc1 [Example 5, 2-[(Aminocarbonyl)amino]-5-{4-[dimethylaminomethyl]phenyl}thiophene-3-carboxamide]
COCCN(Cc1ccc(-c2cc(C(N)=O)c(NC(N)=O)s2)cc1)CC(F)(F)F [Example 6, 2-[(Aminocarbonyl)amino]-5-{4-[(N-(2,2,2-trifluoroethyl)-N-(2-methoxyethyl)amino)methyl]phenyl}thiophene-3-carboxamide]
COCCNCc1ccc(-c2cc(C(N)=O)c(NC(N)=O)s2)cc1 [Example 7]
NC(=O)Nc1sc(-c2ccc(CNCCc3c[nH]c4ccccc34)cc2)cc1C(N)=O [Example 8, 2-[(Aminocarbonyl)amino]-5-[4-{[(2-(1H-indol-3-yl)ethyl)amino]methyl}phenyl)-thiophene-3-carboxamide]
CNCc1ccc(-c2cc(C(N)=O)c(NC(N)=O)s2)cc1 [Example 9, 2-[(Aminocarbonyl)amino]-5-[4-{methylaminomethyl}phenyl]thiophene-3-carboxamide]
NC(=O)Nc1sc(-c2ccc(CNC3CC3)cc2)cc1C(N)=O [Example 10, 2-[(Aminocarbonyl)amino]-5-[4-{cyclopropylaminomethyl}phenyl]thiophene-3-carboxamide]
C[C@@H](O)CNCc1ccc(-c2cc(C(N)=O)c(NC(N)=O)s2)cc1 [Example 11]
C[C@H](O)CNCc1ccc(-c2cc(C(N)=O)c(NC(N)=O)s2)cc1 [Example 12, 2-[(Aminocarbonyl)amino]-5-[4-{([(2S)-2-hydroxypropyl]amino)methyl}phenyl]thiophene-3-carboxamide]
NC(=O)Nc1sc(-c2ccc(CNCC3CCCO3)cc2)cc1C(N)=O (centres unmarked) [Example 13, 2-[(Aminocarbonyl)amino]-5-[4-{[(tetrahydrofuran-2-ylmethyl)amino]methyl}phenyl]thiophene-3-carboxamide]
NC(=O)Nc1sc(-c2ccc(CNCc3ccc(F)cc3)cc2)cc1C(N)=O [Example 14, 2-[(Aminocarbonyl)amino]-5-[4-{[(4-fluorobenzyl)amino]methyl}phenyl]thiophene-3-carboxamide]
NC(=O)Nc1sc(-c2ccc(CNCCCN3CCCC3=O)cc2)cc1C(N)=O [Example 15, 2-[(Aminocarbonyl)amino]-5-[4-{[(3-{2-oxopyrrolidin-1-yl}propyl)amino]methyl}phenyl]thiophene-3-carboxamide]
NC(=O)Nc1sc(-c2ccc(CNCc3cccc4ccccc34)cc2)cc1C(N)=O [Example 16, 2-[(Aminocarbonyl)amino]-5-[4-{[(1-naphthylmethyl)amino]methyl}phenyl]thiophene-3-carboxamide]
NC(=O)Nc1sc(-c2ccc(CNC(CO)Cc3ccc(Cl)cc3)cc2)cc1C(N)=O (centres unmarked) [Example 17, 2-[(Aminocarbonyl)amino]-5-[4-{([1-(4-chlorobenzyl)-2-hydroxyethyl]amino)methyl}phenyl]thiophene-3-carboxamide]
